What follows is the remainder of the data, with few or none of the hits. Activity calls are given as the source filed them. How the calls were made is not given here.
Molecular target: Chaperone protein DnaK (Escherichia coli (strain K12)) (UniProt P0A6Y8)
Assay: E. coli DnaK chaperone inhibitors, primary screen, luminescence, E. coli K12 (AID 547);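 further: tested at 10 µM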
Settings: DnaK chaperone assay, luminescence read-out; active compounds read low

Row | Compound | luminescence
1 | COc1ccc2cc([C@H](C)C(=O)O)ccc2c1 | inactive: 2.6e+06 cps

Source: PubChem BioAssay AID547 (Emory University Molecular Libraries Screening Center, 2006)
